Data on one substance can be found in doi:10.1101/2023.05.02.538526.

No constants are given. Whether binding was seen depends on the method and setting. In cells and extracts the contact can be indirect. For some assays here: Binding calls can cover weak binding; strength is not graded here.

Assay [1] addresses T1, tetraspanin CD82 (human (endogenous in C91-PL)) (UniProt P27701).
T1 sequence: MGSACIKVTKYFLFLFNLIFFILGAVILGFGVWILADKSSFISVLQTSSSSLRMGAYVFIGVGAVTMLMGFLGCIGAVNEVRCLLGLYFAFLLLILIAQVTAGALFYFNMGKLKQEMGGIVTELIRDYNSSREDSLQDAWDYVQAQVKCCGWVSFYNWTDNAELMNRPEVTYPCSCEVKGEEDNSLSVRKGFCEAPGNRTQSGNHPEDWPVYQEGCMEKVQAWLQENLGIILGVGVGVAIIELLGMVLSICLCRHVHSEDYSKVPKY
Put plainly: co-IP.

The target in assay [2] is T2, tetraspanin CD81 (human (endogenous in C91-PL)) (UniProt P60033).
T2 sequence: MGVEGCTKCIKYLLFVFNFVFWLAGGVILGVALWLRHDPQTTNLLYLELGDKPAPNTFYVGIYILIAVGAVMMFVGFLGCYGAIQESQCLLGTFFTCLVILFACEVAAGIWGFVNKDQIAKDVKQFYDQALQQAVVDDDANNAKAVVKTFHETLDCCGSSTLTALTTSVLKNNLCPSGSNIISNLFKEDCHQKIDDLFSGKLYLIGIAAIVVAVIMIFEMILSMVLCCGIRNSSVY
In words: co-IP.

In the case of HTLV-1 Gag, the binding entry in assay [1] is listed as “binds”; in assay [2] it was “no binding”.
